According to PubChem BioAssay AID1671190 (National Center for Advancing Translational Sciences (NCATS), 2021):
In all, about 580,000 compounds went through this assay and about 6,100 (1.1%) were called active. Inconclusive results, whose numbers are uncertain, are shown with a selection of clear calls. Calls come from the whole dose curve; as a rule, active = well fitted inhibition curve with a large enough effect; inconclusive = small, poorly fitted or top-dose-only effect, or another doubt; inactive = no such curve, though single readings can be large or run the other way. Potencies beside an inconclusive call are fits to weak or partial responses and may not hold up.

Amino acid sequences for entries named in this document (tags omitted).
UniProt P18054, whole entry, looked up: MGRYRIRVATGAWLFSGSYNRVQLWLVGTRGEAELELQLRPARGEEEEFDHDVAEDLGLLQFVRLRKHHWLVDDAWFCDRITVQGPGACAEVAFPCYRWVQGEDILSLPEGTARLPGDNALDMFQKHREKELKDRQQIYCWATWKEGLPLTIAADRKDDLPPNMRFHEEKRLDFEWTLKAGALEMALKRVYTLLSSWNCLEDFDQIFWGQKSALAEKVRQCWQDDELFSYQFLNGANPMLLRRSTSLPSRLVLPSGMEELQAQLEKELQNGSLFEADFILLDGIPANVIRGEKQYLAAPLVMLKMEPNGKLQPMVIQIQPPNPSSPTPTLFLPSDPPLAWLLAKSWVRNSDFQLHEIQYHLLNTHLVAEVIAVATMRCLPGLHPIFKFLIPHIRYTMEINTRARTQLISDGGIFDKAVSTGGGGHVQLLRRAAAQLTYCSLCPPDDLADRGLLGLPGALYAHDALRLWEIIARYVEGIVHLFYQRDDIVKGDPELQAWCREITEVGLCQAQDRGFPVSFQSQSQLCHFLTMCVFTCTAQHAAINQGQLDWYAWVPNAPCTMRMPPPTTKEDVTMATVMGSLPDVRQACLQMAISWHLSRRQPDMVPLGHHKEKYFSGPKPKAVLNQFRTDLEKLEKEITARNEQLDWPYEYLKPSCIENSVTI

Each compound was assayed against Polyunsaturated fatty acid lipoxygenase ALOX12 (Homo sapiens) (UniProt P18054) (assay: Primary qHTS assay for inhibitors of human arachidonate 12S-lipoxygenase (ALOX12): Round 2). Conditions: purified 12hLO, xylenol orange hydroperoxide absorbance; activity change, negative = inhibition: at 108 µM (top of the series) unless noted.
Procedure, shortened: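 Purified human 12hLO (150 nM final) in 25 mM Hepes, 0.01% Triton X-100, pH 7.0 was preincubated 15 min at room temperature with compound. Then 40 uM arachidonic acid was added, 30 min. Hydroperoxide was read by Fe-XO absorbance ratio 573/405 nm.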
% is set by controls: 0 for no effect and ±100 for the full control effect; potency is the fitted concentration of half-maximal effect.

| Structure (SMILES) | activity change, negative = inhibition | Potency |
| --- | --- | --- |
| CC1CCCCN1C(=O)c1cccc(NC(=O)c2ccccc2)c1 (stereo not drawn) | inactive: -1.15% | – |
| CCC1(CC)NC(=O)N(CC(=O)NC(=O)NCc2ccccc2)C1=O | – | inconclusive: 50.1 µM [inhibitor, partial curve] |
| N#CC1(Nc2ccccc2)C(=O)Nc2ccccc21 (stereo not drawn) | – | inconclusive: 8.91 µM [inhibitor, full curve, poor fit] |
| Cc1c(CC(=O)NC2CCOCC2)c2c(n1Cc1ccc(F)cc1)CCCC2=O | – | inconclusive: 89.1 µM [inhibitor, partial curve] |
| CC(C)c1ccc(/C=N/NC(=O)Cc2ccccc2)cc1 | – | inconclusive: 10 µM [inhibitor, full curve, poor fit] |
| O=C(O)COc1ccccc1/C=N/NC(=O)CSc1nc2ccccc2c(=O)n1-c1ccccc1 | inactive: 0% | – |
| Cc1noc(C)c1-c1nc(Nc2ccccc2)c2ccccc2n1 | – | inconclusive: 11.2 µM [inhibitor, full curve, poor fit] |
| O=C(Nc1cccc(Cl)c1N1CCOCC1)c1ccc(Br)o1 | inactive: 0% | – |
| C=Cc1ccc(CC2(C)C(=O)Nc3ccc(Cl)cc32)cc1 (stereo not drawn) | – | inconclusive: 44.7 µM [inhibitor, partial curve, poor fit] |
| COC(=O)c1ccoc1COC(=O)CCc1ccc(OC)c(OC)c1 | – | inconclusive: 50.1 µM [inhibitor, single point] |
| COC(=O)C1=C(C)N(Cc2ccc(F)cc2)C(=S)NC1c1cccc(OC)c1 (stereo not drawn) | – | inconclusive: 50.1 µM [inhibitor, partial curve, poor fit] |
| CC(C)(C)c1cc(-c2cc(Br)c(O)c(C(C)(C)C)c2)cc(Br)c1O | – | inconclusive: 35.5 µM [inhibitor, partial curve, poor fit] |
| CC(=O)Nc1ccc(S(=O)(=O)N(C)c2ccc(OCCOc3cccc(C)c3)cc2)cc1 | – | inconclusive: 39.8 µM [inhibitor, partial curve, poor fit] |
| COC(=O)c1sc(NC(=O)[C@@H](NC(=O)c2ccccc2F)C(C)C)nc1C | – | inconclusive: 79.4 µM [inhibitor, single point] |
| CCN1C(=O)/C(=C\N2CCN(C)CC2)SC1=S | – | inconclusive: 89.1 µM [inhibitor, single point] |
| COc1ccc(-c2noc(-c3nc(-c4cc(OC)c(OC)c(OC)c4)no3)n2)cc1 | inactive: 9.05% | – |
| COc1ccc2cc1Oc1ccc(cc1)C[C@H]1c3cc(c(OC)cc3CCN1C)Oc1c(OC)c(OC)cc3c1[C@@H](C2)N(C)CC3 | inactive: 107% | – |
| CC(C)N1CCN(Cc2cnc(N3CCOCC3)s2)CC1CCO (stereo not drawn) | inactive: 8.6% | – |

In the list so far, these contain an aryl methoxy group.

| Structure (SMILES) | activity change, negative = inhibition | Potency |
| --- | --- | --- |
| COC(=O)c1ccoc1COC(=O)CCc1ccc(OC)c(OC)c1 | – | inconclusive: 50.1 µM [inhibitor, single point] |
| COC(=O)C1=C(C)N(Cc2ccc(F)cc2)C(=S)NC1c1cccc(OC)c1 (stereo not drawn) | – | inconclusive: 50.1 µM [inhibitor, partial curve, poor fit] |
| COc1ccc(-c2noc(-c3nc(-c4cc(OC)c(OC)c(OC)c4)no3)n2)cc1 | inactive: 9.05% | – |
| COc1ccc2cc1Oc1ccc(cc1)C[C@H]1c3cc(c(OC)cc3CCN1C)Oc1c(OC)c(OC)cc3c1[C@@H](C2)N(C)CC3 | inactive: 107% | – |
